Test results as given in article PMC10371147.
These are yes or no findings as the source states them, for the method shown. Binding seen in cells or lysates may run through a third protein. Some binding calls cover weakened binding; strength is not graded here. Sequences can lack the tags named with a protein.

The chains behind the UniProt entries cited, without tags or fusion partners.
UniProt E2JF22: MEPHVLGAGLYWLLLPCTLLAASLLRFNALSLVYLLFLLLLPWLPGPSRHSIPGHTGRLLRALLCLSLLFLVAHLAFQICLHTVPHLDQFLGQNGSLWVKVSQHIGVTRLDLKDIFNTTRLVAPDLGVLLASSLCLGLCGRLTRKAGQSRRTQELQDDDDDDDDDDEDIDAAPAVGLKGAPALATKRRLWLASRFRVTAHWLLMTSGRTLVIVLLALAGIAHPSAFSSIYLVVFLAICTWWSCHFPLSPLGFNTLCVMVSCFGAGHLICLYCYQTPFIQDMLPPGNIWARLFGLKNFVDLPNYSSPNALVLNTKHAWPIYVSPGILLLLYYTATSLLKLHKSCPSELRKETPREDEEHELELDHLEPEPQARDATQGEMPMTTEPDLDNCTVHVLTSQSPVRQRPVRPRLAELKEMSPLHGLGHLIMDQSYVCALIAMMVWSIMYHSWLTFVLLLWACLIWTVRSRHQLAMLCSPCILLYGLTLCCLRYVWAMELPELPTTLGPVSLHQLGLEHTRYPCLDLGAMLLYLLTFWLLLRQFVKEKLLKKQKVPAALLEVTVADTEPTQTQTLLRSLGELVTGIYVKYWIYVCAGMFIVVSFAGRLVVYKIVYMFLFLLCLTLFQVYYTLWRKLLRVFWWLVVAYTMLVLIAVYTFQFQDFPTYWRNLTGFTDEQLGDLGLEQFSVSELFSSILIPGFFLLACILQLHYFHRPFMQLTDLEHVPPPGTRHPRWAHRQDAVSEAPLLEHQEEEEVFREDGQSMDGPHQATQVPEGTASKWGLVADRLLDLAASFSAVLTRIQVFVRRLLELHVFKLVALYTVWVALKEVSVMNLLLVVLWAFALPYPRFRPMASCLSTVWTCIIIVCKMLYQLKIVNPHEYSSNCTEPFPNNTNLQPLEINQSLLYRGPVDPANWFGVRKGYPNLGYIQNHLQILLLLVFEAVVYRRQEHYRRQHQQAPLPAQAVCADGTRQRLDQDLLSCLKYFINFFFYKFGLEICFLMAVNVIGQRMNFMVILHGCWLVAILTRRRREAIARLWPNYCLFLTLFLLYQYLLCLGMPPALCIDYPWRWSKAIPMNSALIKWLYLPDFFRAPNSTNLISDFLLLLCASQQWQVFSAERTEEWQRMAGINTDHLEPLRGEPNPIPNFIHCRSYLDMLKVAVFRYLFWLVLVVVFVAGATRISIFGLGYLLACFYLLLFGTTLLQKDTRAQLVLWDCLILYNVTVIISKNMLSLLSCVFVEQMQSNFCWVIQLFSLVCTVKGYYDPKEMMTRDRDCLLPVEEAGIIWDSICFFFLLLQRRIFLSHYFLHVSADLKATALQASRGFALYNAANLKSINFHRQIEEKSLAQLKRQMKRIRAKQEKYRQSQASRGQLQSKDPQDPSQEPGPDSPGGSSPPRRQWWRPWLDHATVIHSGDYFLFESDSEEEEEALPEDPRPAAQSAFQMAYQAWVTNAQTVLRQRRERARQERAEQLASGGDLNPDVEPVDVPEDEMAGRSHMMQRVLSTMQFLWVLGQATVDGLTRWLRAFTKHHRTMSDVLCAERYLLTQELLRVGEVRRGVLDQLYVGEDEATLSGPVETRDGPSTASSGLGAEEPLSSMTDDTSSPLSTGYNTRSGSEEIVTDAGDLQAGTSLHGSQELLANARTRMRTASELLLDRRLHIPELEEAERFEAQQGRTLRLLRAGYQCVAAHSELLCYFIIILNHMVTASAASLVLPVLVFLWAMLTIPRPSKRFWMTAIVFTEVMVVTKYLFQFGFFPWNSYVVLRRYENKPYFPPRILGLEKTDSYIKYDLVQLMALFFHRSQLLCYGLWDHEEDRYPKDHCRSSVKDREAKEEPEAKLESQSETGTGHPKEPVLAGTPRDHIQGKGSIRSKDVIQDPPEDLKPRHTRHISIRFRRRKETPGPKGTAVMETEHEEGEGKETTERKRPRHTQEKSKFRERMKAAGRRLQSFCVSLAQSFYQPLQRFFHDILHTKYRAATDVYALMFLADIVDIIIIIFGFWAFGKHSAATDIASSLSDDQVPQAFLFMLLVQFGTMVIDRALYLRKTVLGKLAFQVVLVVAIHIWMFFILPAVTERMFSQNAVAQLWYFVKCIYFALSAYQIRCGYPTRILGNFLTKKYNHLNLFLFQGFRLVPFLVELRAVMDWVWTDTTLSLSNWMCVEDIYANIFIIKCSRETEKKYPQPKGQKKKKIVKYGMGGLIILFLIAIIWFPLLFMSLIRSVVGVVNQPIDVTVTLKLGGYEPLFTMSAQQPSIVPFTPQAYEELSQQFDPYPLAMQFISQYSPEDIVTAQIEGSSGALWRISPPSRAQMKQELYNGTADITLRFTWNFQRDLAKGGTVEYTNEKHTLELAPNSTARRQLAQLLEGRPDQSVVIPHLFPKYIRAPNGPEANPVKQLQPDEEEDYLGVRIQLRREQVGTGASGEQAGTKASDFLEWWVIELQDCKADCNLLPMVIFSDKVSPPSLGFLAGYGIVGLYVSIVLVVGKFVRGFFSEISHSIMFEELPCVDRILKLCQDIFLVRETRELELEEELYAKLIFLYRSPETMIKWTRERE
UniProt Q8CD54: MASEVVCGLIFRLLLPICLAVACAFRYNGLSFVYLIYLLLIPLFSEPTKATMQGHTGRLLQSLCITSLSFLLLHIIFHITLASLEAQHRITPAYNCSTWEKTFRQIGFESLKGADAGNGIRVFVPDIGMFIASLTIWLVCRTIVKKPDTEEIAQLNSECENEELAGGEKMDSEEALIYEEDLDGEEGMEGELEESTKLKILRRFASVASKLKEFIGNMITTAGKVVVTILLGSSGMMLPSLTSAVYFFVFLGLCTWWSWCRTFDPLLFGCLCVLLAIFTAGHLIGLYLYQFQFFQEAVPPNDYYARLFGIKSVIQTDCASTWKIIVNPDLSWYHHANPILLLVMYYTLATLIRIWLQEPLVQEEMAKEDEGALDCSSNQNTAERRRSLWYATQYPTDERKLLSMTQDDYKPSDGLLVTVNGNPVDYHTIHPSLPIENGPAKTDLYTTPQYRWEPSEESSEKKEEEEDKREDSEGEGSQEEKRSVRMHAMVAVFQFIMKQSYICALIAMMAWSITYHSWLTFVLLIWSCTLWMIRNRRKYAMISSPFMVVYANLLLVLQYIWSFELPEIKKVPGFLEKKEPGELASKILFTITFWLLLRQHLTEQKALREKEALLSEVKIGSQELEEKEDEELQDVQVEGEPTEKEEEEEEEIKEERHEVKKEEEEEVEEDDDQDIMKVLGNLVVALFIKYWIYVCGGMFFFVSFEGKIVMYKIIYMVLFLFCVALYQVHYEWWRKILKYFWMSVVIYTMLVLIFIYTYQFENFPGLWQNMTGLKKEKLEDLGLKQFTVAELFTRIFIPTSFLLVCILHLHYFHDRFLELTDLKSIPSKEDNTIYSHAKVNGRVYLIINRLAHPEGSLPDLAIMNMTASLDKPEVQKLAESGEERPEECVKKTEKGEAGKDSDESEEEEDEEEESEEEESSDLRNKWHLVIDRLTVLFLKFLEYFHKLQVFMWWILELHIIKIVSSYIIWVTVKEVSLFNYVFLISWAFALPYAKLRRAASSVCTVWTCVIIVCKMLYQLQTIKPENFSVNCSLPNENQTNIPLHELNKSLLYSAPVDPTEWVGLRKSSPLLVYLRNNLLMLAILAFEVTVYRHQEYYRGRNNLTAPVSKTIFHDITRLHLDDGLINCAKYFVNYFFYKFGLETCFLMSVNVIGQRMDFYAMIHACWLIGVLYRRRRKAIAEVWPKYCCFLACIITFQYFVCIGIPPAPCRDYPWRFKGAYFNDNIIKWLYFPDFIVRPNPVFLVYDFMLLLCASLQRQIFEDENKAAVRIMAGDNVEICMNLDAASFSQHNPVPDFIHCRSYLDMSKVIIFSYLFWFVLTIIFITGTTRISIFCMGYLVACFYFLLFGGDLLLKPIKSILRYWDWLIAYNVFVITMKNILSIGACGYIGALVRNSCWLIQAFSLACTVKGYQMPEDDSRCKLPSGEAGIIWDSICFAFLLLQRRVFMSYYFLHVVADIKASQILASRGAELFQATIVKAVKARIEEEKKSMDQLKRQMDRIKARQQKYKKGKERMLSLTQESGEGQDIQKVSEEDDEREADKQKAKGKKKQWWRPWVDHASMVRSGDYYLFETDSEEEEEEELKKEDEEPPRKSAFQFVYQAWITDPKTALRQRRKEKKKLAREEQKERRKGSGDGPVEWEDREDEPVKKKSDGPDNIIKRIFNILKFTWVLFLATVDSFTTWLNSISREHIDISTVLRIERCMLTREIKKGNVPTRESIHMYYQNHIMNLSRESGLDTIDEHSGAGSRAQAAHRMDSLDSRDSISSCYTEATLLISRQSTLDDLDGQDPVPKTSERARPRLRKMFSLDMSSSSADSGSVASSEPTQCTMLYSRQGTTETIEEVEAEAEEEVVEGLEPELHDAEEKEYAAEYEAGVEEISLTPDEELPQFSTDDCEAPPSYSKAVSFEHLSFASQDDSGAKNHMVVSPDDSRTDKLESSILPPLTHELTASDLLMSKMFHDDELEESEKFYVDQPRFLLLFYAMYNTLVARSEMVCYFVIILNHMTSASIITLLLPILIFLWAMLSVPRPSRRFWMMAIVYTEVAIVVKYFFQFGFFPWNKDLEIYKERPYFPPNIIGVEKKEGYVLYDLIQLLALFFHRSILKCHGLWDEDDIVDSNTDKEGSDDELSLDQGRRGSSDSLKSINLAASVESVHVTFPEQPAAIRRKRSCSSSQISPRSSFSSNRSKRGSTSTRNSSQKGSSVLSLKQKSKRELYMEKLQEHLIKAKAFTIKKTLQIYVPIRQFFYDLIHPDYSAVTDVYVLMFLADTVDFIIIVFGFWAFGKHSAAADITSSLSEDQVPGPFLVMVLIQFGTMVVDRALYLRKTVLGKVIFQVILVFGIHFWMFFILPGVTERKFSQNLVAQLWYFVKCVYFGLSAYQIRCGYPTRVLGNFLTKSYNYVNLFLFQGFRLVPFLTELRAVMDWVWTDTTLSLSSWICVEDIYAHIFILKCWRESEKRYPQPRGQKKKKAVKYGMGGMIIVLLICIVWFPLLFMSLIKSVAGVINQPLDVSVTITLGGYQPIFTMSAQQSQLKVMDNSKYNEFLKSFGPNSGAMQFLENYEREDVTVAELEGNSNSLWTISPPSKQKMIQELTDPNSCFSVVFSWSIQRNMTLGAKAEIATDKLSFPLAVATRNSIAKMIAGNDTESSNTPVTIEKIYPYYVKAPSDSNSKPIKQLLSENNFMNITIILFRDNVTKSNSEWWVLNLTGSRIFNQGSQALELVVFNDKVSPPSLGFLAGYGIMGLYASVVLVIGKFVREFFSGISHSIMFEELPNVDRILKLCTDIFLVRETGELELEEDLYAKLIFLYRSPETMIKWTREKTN

Key:
[1] = molecular target: FLAG-tagged mouse Pz1 (Flag-mPz1) (mouse) (UniProt E2JF22); experiment: co-IP; lysates of HEK 293 cells co-transfected with Pz1-FLAG and one tagged partner, harvested 48 h after transfection, antibody on Dynabeads Protein G, 20 min at RT, Western blot with antibodies to the tags
[2] = molecular target: Piezo2-GFP fusion protein (Pz2-GFP mouse) (mouse) (UniProt Q8CD54); experiment: co-IP; cochlear tissue lysates of Tmc2-AcGFP:Pz1-tdT and Tmc1-mCherry:Pz2-GFP mice, GFP antibody overnight at 4 C, Dynabeads Protein G, immunoblot with anti-tdTomato or anti-mCherry

Row | binding [1] | binding [2] | Binder
1 | binds | – | mCherry-tagged mouse Tmc2 (HEK 293) (protein, UniProt Q8R4P4 1-888) MSPQLKSLDEEGDKSARRPTRKQTSRAACPQDGHRAQSSRKDPAKGSPRPGSSRKKQMEHGSYHKGLQGQKPRKVERSLQGRKKDRRTSLKEQRASPKKEREALRKEAGKQLRKPRSTSLGSSVSTGDSLSEEELAQILEQVEEKKKLITTVRNKPWPMAKKLRELREAQAFVEKYEGALGKGKGKHLYAYRMMMAKKWVKFKRDFDNFKTQCIPWEMKIKDIESHFGSSVASYFIFLRWMYGVNLVLFGLIFGLVIIPEVLMGMPYGSIPRKTVPRAEEERAMDFSVLWDFEGYIKYSALFYGYYNNQRTIGWLRYRLPMAYFMVGVSVFGYSLMIVIRSMASNTQGSTSEGDSDSFTFSFKMFTSWDYLIGNSETADNKYVSITTSFKESIVDEQESNKEGNIHLTRFLRVLANFLILCCLCGSGYLIYFVVKRSQEFSKMQNVSWYERNEVEIVMSLLGMFCPPLFETIAALENYHPRTGLKWQLGRIFALFLGNLYTFLLALMDDVHLKLSNEEKIKNITHWTLFNYYNSSGGNESVPRPPPHPADVPRGSCWETAVGIEFMRLTVSDMLVTYLTILVGDFLRACFVRFMNHCWCWDLEAGFPSYAEFDISGNVLGLIFNQGMIWMGSFYAPGLVGINVLRLLTSMYFQCWAVMSSNVPHERVFKASRSNNFYMGLLLLVLFLSLLPVAYTVMSLPPSFDCGPFSGKNRMYDVLHETIENDFPKFLGKIFAFLANPGLIIPAILLMFLAIYYLNSVSKSLSRANAQLRKKIQALREVEKNHKSIKGKAIVTYSEDTIKNSSKNATQIHLTKEEPTSHSSSQIQTLDKKAQGPHTSSTEGGASPSTSWHHVGSQPPRGRRDSGQPQSQTYTGRSPSGKRTQRPHN
2 | – | binds | Tmc1-mCherry fusion protein (Tmc1-mCherry transgenic mouse) (protein, UniProt Q8R4P5 1-757) MLQIQVEEKEEDTEESSSEEEEDKLPRRESLRPKRKRTRDVINEDDPEPEPEDEETRKAREKERRRRLRRGAEEEEEIDEEELERLKALLDENRQMIATVKCKPWKMEKKIEVLKEAKKFVSENEGALGKGKGKKWFAFKMMMAKKWAKFLRDFENFKAACVPWENKIKAIESQFGSSVASYFLFLRWMYGVNMVLFVLTFSLIMLPEYLWGLPYGSLPRKTVPRAEEASAANFGVLYDFNGLAQYSVLFYGYYDNKRTIGWLNFRLPLSYFLVGIMCIGYSFLVVLKAMTKNIGDDGGGDDNTFNFSWKVFCSWDYLIGNPETADNKFNSITMNFKEAIIEERAAQVEENIHLIRFLRFLANFFVFLTLGASGYLIFWAVKRSQEFAQQDPDTLGWWEKNEMNMVMSLLGMFCPTLFDLFAELEDYHPLIALKWLLGRIFALLLGNLYVFILALMDEINNKIEEEKLVKANITLWEANMIKAYNESLSGLSGNTTGAPFFVHPADVPRGPCWETMVGQEFVRLTVSDVLTTYVTILIGDFLRACFVRFCNYCWCWDLEYGYPSYTEFDISGNVLALIFNQGMIWMGSFFAPSLPGINILRLHTSMYFQCWAVMCCNVPEARVFKASRSNNFYLGMLLLILFLSTMPVLYMIVSLPPSFDCGPFSGKNRMFEVIGETLEHDFPSWMAKILRQLSNPGLVIAVILVMVLTIYYLNATAKGQKAANLDLKKKMKQQALENKMRNKKMAAARAAAAAGGQ
3 | binds | – | mCherry-tagged mouse Tmc1 (HEK 293) (protein, UniProt Q8R4P5 1-757) MLQIQVEEKEEDTEESSSEEEEDKLPRRESLRPKRKRTRDVINEDDPEPEPEDEETRKAREKERRRRLRRGAEEEEEIDEEELERLKALLDENRQMIATVKCKPWKMEKKIEVLKEAKKFVSENEGALGKGKGKKWFAFKMMMAKKWAKFLRDFENFKAACVPWENKIKAIESQFGSSVASYFLFLRWMYGVNMVLFVLTFSLIMLPEYLWGLPYGSLPRKTVPRAEEASAANFGVLYDFNGLAQYSVLFYGYYDNKRTIGWLNFRLPLSYFLVGIMCIGYSFLVVLKAMTKNIGDDGGGDDNTFNFSWKVFCSWDYLIGNPETADNKFNSITMNFKEAIIEERAAQVEENIHLIRFLRFLANFFVFLTLGASGYLIFWAVKRSQEFAQQDPDTLGWWEKNEMNMVMSLLGMFCPTLFDLFAELEDYHPLIALKWLLGRIFALLLGNLYVFILALMDEINNKIEEEKLVKANITLWEANMIKAYNESLSGLSGNTTGAPFFVHPADVPRGPCWETMVGQEFVRLTVSDVLTTYVTILIGDFLRACFVRFCNYCWCWDLEYGYPSYTEFDISGNVLALIFNQGMIWMGSFFAPSLPGINILRLHTSMYFQCWAVMCCNVPEARVFKASRSNNFYLGMLLLILFLSTMPVLYMIVSLPPSFDCGPFSGKNRMFEVIGETLEHDFPSWMAKILRQLSNPGLVIAVILVMVLTIYYLNATAKGQKAANLDLKKKMKQQALENKMRNKKMAAARAAAAAGGQ
